PubChem BioAssay AID1508597 – Cure First – 2020
This is a random part of about 2,100 reagents tested. 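Calls flag viability under 80% in either arm, not effects specific to rucaparib; the reference for percent is not stated.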 Not given: the 100% reference.

Screen: 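Knock-downs altering ovarian cancer cell survival with or without PARP inhibitor rucaparib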 (primary screen)
Cell system: human ovarian carcinoma lines grown from tumours: OCI-P5x (papillary serous) and OCI-C5x (clear cell)
Reagents: siRNA pool against human genes, 1.25 pmol siRNA per well
Time to read-out: 72 h or 96 h, depending on the cell culture
Treatment: rucaparib 20 µM (about IC30) or vehicle, present until read-out
Measurement: 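Luminescent ATP-based viability assay read 72 or 96 h after transfection, depending on culture, given as normalised percent viability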
Direction: viability, normalised: higher = more viable cells remaining
Active means: 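a well counts as a hit if its normalised viability is under 80 percent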
Calls: active = viability under 80%; inactive = viability 80% or more

no.	Gene	rucaparib or vehicle	cell line	technical replicate	viability, normalised (%)	outcome
1	IRAK1 (GeneID 3654)	Rucaparib	OCI-C5x (clear cell)	1	35.8	active
2	IRAK1 (GeneID 3654)	Rucaparib	OCI-C5x (clear cell)	2	41	active
3	IRAK1 (GeneID 3654)	Rucaparib	OCI-C5x (clear cell)	3	36.1	active
4	IRAK1 (GeneID 3654)	Rucaparib	OCI-P5x (serous)	1	53	active
5	IRAK1 (GeneID 3654)	Rucaparib	OCI-P5x (serous)	2	59.7	active
6	IRAK1 (GeneID 3654)	Rucaparib	OCI-P5x (serous)	3	74.4	active
7	IRAK1 (GeneID 3654)	Vehicle	OCI-C5x (clear cell)	1	43.9	active
8	IRAK1 (GeneID 3654)	Vehicle	OCI-C5x (clear cell)	2	36.9	active
9	IRAK1 (GeneID 3654)	Vehicle	OCI-C5x (clear cell)	3	45.2	active
10	IRAK1 (GeneID 3654)	Vehicle	OCI-P5x (serous)	1	71.5	active
11	IRAK1 (GeneID 3654)	Vehicle	OCI-P5x (serous)	2	66.4	active
12	IRAK1 (GeneID 3654)	Vehicle	OCI-P5x (serous)	3	56.1	active
13	MED25 (GeneID 81857)	Rucaparib	OCI-C5x (clear cell)	1	33.3	active
14	MED25 (GeneID 81857)	Rucaparib	OCI-C5x (clear cell)	2	38.2	active
15	MED25 (GeneID 81857)	Rucaparib	OCI-C5x (clear cell)	3	37.8	active
16	MED25 (GeneID 81857)	Rucaparib	OCI-P5x (serous)	1	54.3	active
17	MED25 (GeneID 81857)	Rucaparib	OCI-P5x (serous)	2	68.7	active
18	MED25 (GeneID 81857)	Rucaparib	OCI-P5x (serous)	3	70	active
19	MED25 (GeneID 81857)	Vehicle	OCI-C5x (clear cell)	1	39.9	active
20	MED25 (GeneID 81857)	Vehicle	OCI-C5x (clear cell)	2	39.4	active
21	MED25 (GeneID 81857)	Vehicle	OCI-C5x (clear cell)	3	48	active
22	MED25 (GeneID 81857)	Vehicle	OCI-P5x (serous)	1	66.1	active
23	MED25 (GeneID 81857)	Vehicle	OCI-P5x (serous)	2	72.6	active
24	MED25 (GeneID 81857)	Vehicle	OCI-P5x (serous)	3	89.2	inactive
25	ERBB2 (GeneID 2064)	Rucaparib	OCI-C5x (clear cell)	1	59.3	active
26	ERBB2 (GeneID 2064)	Rucaparib	OCI-C5x (clear cell)	2	45.7	active
27	ERBB2 (GeneID 2064)	Rucaparib	OCI-C5x (clear cell)	3	44.8	active
28	ERBB2 (GeneID 2064)	Rucaparib	OCI-P5x (serous)	1	93.5	inactive
29	ERBB2 (GeneID 2064)	Rucaparib	OCI-P5x (serous)	2	85	inactive
30	ERBB2 (GeneID 2064)	Rucaparib	OCI-P5x (serous)	3	91.3	inactive
31	ERBB2 (GeneID 2064)	Vehicle	OCI-C5x (clear cell)	1	45.7	active
32	ERBB2 (GeneID 2064)	Vehicle	OCI-C5x (clear cell)	2	38.8	active
33	ERBB2 (GeneID 2064)	Vehicle	OCI-C5x (clear cell)	3	54.3	active
34	ERBB2 (GeneID 2064)	Vehicle	OCI-P5x (serous)	1	71.4	active
35	ERBB2 (GeneID 2064)	Vehicle	OCI-P5x (serous)	2	67.5	active
36	ERBB2 (GeneID 2064)	Vehicle	OCI-P5x (serous)	3	69.4	active

5 entries from above, reformatted.
{"Gene": "ERBB2 (GeneID 2064)", "rucaparib or vehicle": "Rucaparib", "cell line": "OCI-C5x (clear cell)", "technical replicate": "1", "viability, normalised (%)": 59.3, "outcome": "active"}
{"Gene": "ERBB2 (GeneID 2064)", "rucaparib or vehicle": "Rucaparib", "cell line": "OCI-C5x (clear cell)", "technical replicate": "2", "viability, normalised (%)": 45.7, "outcome": "active"}
{"Gene": "ERBB2 (GeneID 2064)", "rucaparib or vehicle": "Rucaparib", "cell line": "OCI-C5x (clear cell)", "technical replicate": "3", "viability, normalised (%)": 44.8, "outcome": "active"}
{"Gene": "ERBB2 (GeneID 2064)", "rucaparib or vehicle": "Rucaparib", "cell line": "OCI-P5x (serous)", "technical replicate": "1", "viability, normalised (%)": 93.5, "outcome": "inactive"}
{"Gene": "ERBB2 (GeneID 2064)", "rucaparib or vehicle": "Rucaparib", "cell line": "OCI-P5x (serous)", "technical replicate": "2", "viability, normalised (%)": 85, "outcome": "inactive"}

More results:
no.	Gene	rucaparib or vehicle	cell line	technical replicate	viability, normalised (%)	outcome
37	INTS12 (GeneID 57117)	Rucaparib	OCI-C5x (clear cell)	1	46.6	active
38	INTS12 (GeneID 57117)	Rucaparib	OCI-C5x (clear cell)	2	37	active
39	INTS12 (GeneID 57117)	Rucaparib	OCI-C5x (clear cell)	3	59.2	active
40	INTS12 (GeneID 57117)	Rucaparib	OCI-P5x (serous)	1	84.8	inactive
41	INTS12 (GeneID 57117)	Rucaparib	OCI-P5x (serous)	2	68.3	active
42	INTS12 (GeneID 57117)	Rucaparib	OCI-P5x (serous)	3	79.9	active
43	INTS12 (GeneID 57117)	Vehicle	OCI-C5x (clear cell)	1	51.5	active
44	INTS12 (GeneID 57117)	Vehicle	OCI-C5x (clear cell)	2	41.2	active
45	INTS12 (GeneID 57117)	Vehicle	OCI-C5x (clear cell)	3	41.5	active
46	INTS12 (GeneID 57117)	Vehicle	OCI-P5x (serous)	1	63.3	active
47	INTS12 (GeneID 57117)	Vehicle	OCI-P5x (serous)	2	62.3	active
48	INTS12 (GeneID 57117)	Vehicle	OCI-P5x (serous)	3	78.6	active
49	IL10 (GeneID 3586)	Rucaparib	OCI-C5x (clear cell)	1	94.7	inactive
50	IL10 (GeneID 3586)	Rucaparib	OCI-C5x (clear cell)	2	77.3	active
51	IL10 (GeneID 3586)	Rucaparib	OCI-C5x (clear cell)	3	67.9	active
52	IL10 (GeneID 3586)	Rucaparib	OCI-P5x (serous)	1	92.3	inactive
53	IL10 (GeneID 3586)	Rucaparib	OCI-P5x (serous)	2	63.5	active
54	IL10 (GeneID 3586)	Rucaparib	OCI-P5x (serous)	3	67.4	active
55	IL10 (GeneID 3586)	Vehicle	OCI-C5x (clear cell)	1	83.5	inactive
56	IL10 (GeneID 3586)	Vehicle	OCI-C5x (clear cell)	2	70.4	active
57	IL10 (GeneID 3586)	Vehicle	OCI-C5x (clear cell)	3	75.4	active
58	IL10 (GeneID 3586)	Vehicle	OCI-P5x (serous)	1	96.6	inactive
59	IL10 (GeneID 3586)	Vehicle	OCI-P5x (serous)	2	75.3	active
60	IL10 (GeneID 3586)	Vehicle	OCI-P5x (serous)	3	82.1	inactive
61	PHF14 (GeneID 9678)	Rucaparib	OCI-C5x (clear cell)	1	42.4	active
62	PHF14 (GeneID 9678)	Rucaparib	OCI-C5x (clear cell)	2	31.3	active
63	PHF14 (GeneID 9678)	Rucaparib	OCI-C5x (clear cell)	3	34.4	active
64	PHF14 (GeneID 9678)	Rucaparib	OCI-P5x (serous)	1	58.3	active
65	PHF14 (GeneID 9678)	Rucaparib	OCI-P5x (serous)	2	50.8	active
66	PHF14 (GeneID 9678)	Rucaparib	OCI-P5x (serous)	3	48.2	active
67	PHF14 (GeneID 9678)	Vehicle	OCI-C5x (clear cell)	1	35.5	active
68	PHF14 (GeneID 9678)	Vehicle	OCI-C5x (clear cell)	2	30.7	active
69	PHF14 (GeneID 9678)	Vehicle	OCI-C5x (clear cell)	3	33.4	active
70	PHF14 (GeneID 9678)	Vehicle	OCI-P5x (serous)	1	67.6	active
71	PHF14 (GeneID 9678)	Vehicle	OCI-P5x (serous)	2	80.2	inactive
72	PHF14 (GeneID 9678)	Vehicle	OCI-P5x (serous)	3	128	inactive
73	MEN1 (GeneID 4221)	Rucaparib	OCI-C5x (clear cell)	1	46.6	active
74	MEN1 (GeneID 4221)	Rucaparib	OCI-C5x (clear cell)	2	41.4	active
75	MEN1 (GeneID 4221)	Rucaparib	OCI-C5x (clear cell)	3	55.9	active
76	MEN1 (GeneID 4221)	Rucaparib	OCI-P5x (serous)	1	69.8	active
77	MEN1 (GeneID 4221)	Rucaparib	OCI-P5x (serous)	2	56.6	active
78	MEN1 (GeneID 4221)	Rucaparib	OCI-P5x (serous)	3	66.9	active
79	MEN1 (GeneID 4221)	Vehicle	OCI-C5x (clear cell)	1	53.1	active
80	MEN1 (GeneID 4221)	Vehicle	OCI-C5x (clear cell)	2	51.2	active
81	MEN1 (GeneID 4221)	Vehicle	OCI-C5x (clear cell)	3	50.1	active
82	MEN1 (GeneID 4221)	Vehicle	OCI-P5x (serous)	1	61.2	active
83	MEN1 (GeneID 4221)	Vehicle	OCI-P5x (serous)	2	69.8	active
84	MEN1 (GeneID 4221)	Vehicle	OCI-P5x (serous)	3	66.7	active
